From PMC9881148

Molecular target: p53WT (Homo sapiens) (UniProt P04637)
Assay: FCS
Conditions: 3 mM DTT, 0.05% Tween20, 1 h room temperature, 10 nM nucleic acid, recombinant protein, protein details: His-tag removed by thrombin, label: Cy5 at 5' end of forward strand

Sequence: CGAGGAACATGTCCCAACATGTTGCTCGAG (double strand) [REp21]
- Kd (50 mM Tris pH 7.4, 150 mM NaCl): 32 nM

Sequence: GTCGCTGACCCGAGACTAGGCGTTCAAATA (double strand) [REp21scr]
- binding result (onset of binding ~1 uM, ~100x higher than REp21, 50 mM Tris pH 7.4, 150 mM NaCl): binds more weakly

For at least one entry, the source does not settle the construct or the ends of the probe. The comparison behind a weaker result is the experiment's own reference, which may not be listed here.
